Results as given in publication PMC6925144, “A prospective compound screening contest identified broader inhibitors for Sirtuin 1” (Scientific Reports, 2019).
The full ranking holds about 3,200 compounds; the median of “TSA(with NAD+) / Primary screening (TSA) / delta Tm (K)” is about -0.04, and the highest 2% start at about 0.37. This is one part of the list.

Chains of the proteins cited; added tags and fusions are not shown. Residues count along the entry.
UniProt Q96EB6, 2-747 limits assumed: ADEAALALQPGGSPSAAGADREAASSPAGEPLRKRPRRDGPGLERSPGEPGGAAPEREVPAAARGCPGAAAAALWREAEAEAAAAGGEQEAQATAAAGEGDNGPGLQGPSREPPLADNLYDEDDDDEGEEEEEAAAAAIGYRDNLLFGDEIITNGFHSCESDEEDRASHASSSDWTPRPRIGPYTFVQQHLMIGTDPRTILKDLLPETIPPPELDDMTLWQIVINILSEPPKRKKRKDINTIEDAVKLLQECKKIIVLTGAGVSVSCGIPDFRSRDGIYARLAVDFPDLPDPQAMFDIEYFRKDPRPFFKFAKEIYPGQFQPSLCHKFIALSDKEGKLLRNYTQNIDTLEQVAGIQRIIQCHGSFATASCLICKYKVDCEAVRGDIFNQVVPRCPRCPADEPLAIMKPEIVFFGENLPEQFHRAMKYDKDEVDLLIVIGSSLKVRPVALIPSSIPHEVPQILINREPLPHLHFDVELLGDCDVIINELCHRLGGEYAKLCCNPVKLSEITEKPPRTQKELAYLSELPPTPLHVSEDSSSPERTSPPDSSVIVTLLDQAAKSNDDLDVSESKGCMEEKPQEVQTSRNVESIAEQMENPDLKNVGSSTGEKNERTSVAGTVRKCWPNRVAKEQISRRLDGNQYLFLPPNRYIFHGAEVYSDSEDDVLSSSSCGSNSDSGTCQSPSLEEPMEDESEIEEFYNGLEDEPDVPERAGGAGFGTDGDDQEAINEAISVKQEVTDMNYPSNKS

Each compound was assayed against NAD-dependent deacetylase Sirtuin 1 (human, UniProt Q96EB6) (assay: primary screen, delta tm). Conditions: 10 µM.
Design: single well (n = 1, as 'the same TSA')

Row | SMILES | TSA(with NAD+) / Primary screening (TSA) / delta Tm (K)
1 | CCCn1c2c(c(=O)[nH]c1=O)C(=O)C(C)N2 (centres unmarked) | -0.11
2 | FC(F)(F)c1nnc2ccc(NC3CC3)nn12 | -0.05
3 | O=C(CCCn1c(=O)oc2ccccc21)Nc1ccc(N2CCN(Cc3ccccc3)CC2)cc1 | 0.15
4 | CN(c1ccc(OCCCC(C)(C)C#N)cc1)S(=O)(=O)c1ccc(Cl)cc1 | 0.11
5 | Brc1ccc2[nH]c3c(c2c1)CCCCCC3 | 0.06
6 | Cc1nc(C#N)c(C#N)n1Cc1cnn(-c2ccccc2)c1 | -0.05
7 | CC(OC(=O)C1=CN2CCS(=O)(=O)N=C2C=C1)C(=O)Nc1ccc(Oc2ccccc2)cc1 (centres unmarked) | -0.11
8 | O=[N+]([O-])c1cnn(-c2ncnc3ccsc23)c1 | -0.03
9 | CCCOc1c(Cl)cc(/C=C/C(=O)Nc2c(C(N)=O)n[nH]c2C)cc1OC | -0.03
10 | CC(C)(C)c1nc(CN2CCN(c3ncnc4c3oc3ccccc34)CC2)no1 | -0.15
11 | O=C(c1cc2ccccc2oc1=O)N1CCC(c2ccc(O)cc2)CC1 | -0.12
12 | O=C(O)C(O)CS(=O)(=O)O (centres unmarked) | -0.15
13 | CC12CCC(=O)N1C(C(=O)O)Cc1c2[nH]c2ccccc12 (centres unmarked) | 0.09
14 | O=C(Nc1ccccc1)C1CCN(c2ncnc3scc(-c4ccc(F)cc4)c23)CC1 | 0.13
15 | Cc1ccccc1-c1nnc(Nc2cccc(S(=O)(=O)N(C)c3ccccc3)c2)o1 | 0.01
16 | Cc1nc(N2CCC(C(N)=O)CC2)c2cc(-c3ccccc3)sc2n1 | -0.04
17 | Cc1nc(N2CCC(NC(N)=O)CC2)c2c3c(sc2n1)CCCC3 | -0.03
18 | CC1CC(C(N)=O)c2ccccc2N1Cc1nc(-c2cccc(C(F)(F)F)c2)no1 (centres unmarked) | -0.08
19 | Cn1c2ccccc2c2cc(S(=O)(=O)NCc3cccc(NC(=O)C4CC4)c3)ccc21 | 0.06
20 | NC(c1ccccc1)c1ccc(Cl)cc1 (centres unmarked) | -0.15
21 | CCN(CC(=O)Nc1ccc(OC)cc1)C(C)C(=O)Nc1ccc(C(N)=O)cc1 (centres unmarked) | -0.06
22 | CNC(=O)CS | -0.21
23 | CC(=O)c1ccccc1NC(=O)c1cc(F)c(F)c(F)c1F | -0.03
24 | Cc1ccc2c(c1)nc(-c1cnc(N3CCCC3)nc1)n2C | -0.11

An excerpt from above in order of heavy-atom count, low to high.
Row | SMILES | TSA(with NAD+) / Primary screening (TSA) / delta Tm (K)
22 | CNC(=O)CS | -0.21
12 | O=C(O)C(O)CS(=O)(=O)O (centres unmarked) | -0.15
20 | NC(c1ccccc1)c1ccc(Cl)cc1 (centres unmarked) | -0.15
5 | Brc1ccc2[nH]c3c(c2c1)CCCCCC3 | 0.06
8 | O=[N+]([O-])c1cnn(-c2ncnc3ccsc23)c1 | -0.03
13 | CC12CCC(=O)N1C(C(=O)O)Cc1c2[nH]c2ccccc12 (centres unmarked) | 0.09
24 | Cc1ccc2c(c1)nc(-c1cnc(N3CCCC3)nc1)n2C | -0.11
17 | Cc1nc(N2CCC(NC(N)=O)CC2)c2c3c(sc2n1)CCCC3 | -0.03
11 | O=C(c1cc2ccccc2oc1=O)N1CCC(c2ccc(O)cc2)CC1 | -0.12
9 | CCCOc1c(Cl)cc(/C=C/C(=O)Nc2c(C(N)=O)n[nH]c2C)cc1OC | -0.03
21 | CCN(CC(=O)Nc1ccc(OC)cc1)C(C)C(=O)Nc1ccc(C(N)=O)cc1 (centres unmarked) | -0.06
15 | Cc1ccccc1-c1nnc(Nc2cccc(S(=O)(=O)N(C)c3ccccc3)c2)o1 | 0.01
14 | O=C(Nc1ccccc1)C1CCN(c2ncnc3scc(-c4ccc(F)cc4)c23)CC1 | 0.13
3 | O=C(CCCn1c(=O)oc2ccccc21)Nc1ccc(N2CCN(Cc3ccccc3)CC2)cc1 | 0.15

Continued.

Row | SMILES | TSA(with NAD+) / Primary screening (TSA) / delta Tm (K)
25 | Cc1ccc(Nc2nc(CSc3nnc(NCc4ccco4)s3)cs2)cc1 | -0.12
26 | O=C(NO)c1cccc(C(F)(F)F)c1 | -0.19
27 | Cc1noc(C)c1COc1ccccc1C(=O)NCCc1cccnc1 | -0.18
28 | COC(=O)C1=C(C)OC(CSc2nnc(CCC3CCCC3)[nH]2)C1 (centres unmarked) | -0.14
29 | Cn1c(NCc2cccnc2)c(C#N)c(=O)n(C)c1=O | 0.05
30 | CCSC1CCC(NC(=O)Cc2cnc3ccccc3c2)C1 (centres unmarked) | -0.11
31 | CCCN(Cc1nnc(-c2ccccc2Cl)o1)C(=O)c1cccc(S(=O)(=O)N(C)c2ccc(C)cc2)c1 | -0.09
32 | O=C(CN1CCN(C(=O)c2ccccc2C(=O)c2ccccc2)CC1)Nc1ccccc1Cl | 0.05
33 | COc1cc(CN(C)C(=O)Cn2c(=O)oc3ccccc32)ccc1OCc1ccccc1 | -0.02
34 | CC1CCN(c2ccc(C(=O)Nc3ncc(C(N)=O)s3)cc2[N+](=O)[O-])CC1 | 0.17
35 | CCNCCO | -0.13
36 | CN(CC(=O)Nc1ccccc1Cl)C(=O)CNc1cccc(OC(F)(F)F)c1 | -0.06
37 | NC(=O)C(Cc1ccccc1)NC(=O)CCc1nc2ccccc2[nH]1 (centres unmarked) | -0.32
38 | C=CCn1c(SCC(=O)NC(C)c2ccco2)nc2ccsc2c1=O (centres unmarked) | -0.05
39 | Cc1nc2ccccc2c(C)c1C(=O)OCC(N)=O | 0.03
40 | NC(=O)c1cncc(Oc2nc3ccccc3o2)c1 | -0.18
41 | NCCS(=O)(=O)CCN | -0.04
42 | CC(C)c1ccc(C2(C)CC(=O)NC2=O)cc1 (centres unmarked) | -0.11
43 | O=C(CCCNC(=O)c1ccc(Cl)cc1)Nc1cccc(S(=O)(=O)N2CCOCC2)c1 | 0.01
44 | O=C(NC1=NCCS1)c1cc(Cl)ccc1O | -0.01
45 | CCC1CCCCN1c1ncnc2c(C)csc12 (centres unmarked) | -0.01
46 | Cc1ccc(S(=O)(=O)CCC(=O)OCc2nnc(-c3ccc([N+](=O)[O-])cc3)o2)cc1 | -0.28
47 | Cn1ncc2c(N3CCC(C(=O)Nc4ccccc4O)CC3)ncnc21 | -0.18
